PubChem BioAssay AID504793 – Drosophila RNAi Screening Center – 2011
In all, the deposit lists about 23,000 reagents; below is an unselected part of those with a known target gene and a result. Of all reagents, 62 (0.27%) were called active. 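Calls come from follow-up tests whose scores are not deposited, so confirmed genes may have low counts here; counts are not normalised per plate.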 The raw values are shown without normalisation. The numbers tell different reagents against one gene apart. A plus sign joins genes that one reagent is predicted to hit.

Aim: 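Whole-genome screen for parts of the DNA damage checkpoint at G2/M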 (primary screen)
Cell system: Drosophila S2R+ cells
Knock-down reagent: long dsRNA against Drosophila genes, about 0.25 µg dsRNA per well
Timing: 4 days of dsRNA, then 4 hours of drug before read-out
Conditions: doxorubicin 0.5 µM for 4 hours to cause double-strand breaks, in cells also given a low, harmless dose of dsRNA against nbs to sensitise the assay
Measured: 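Per-well count of mitotic cells stained for phospho-histone H3 after doxorubicin exposure, used as mitotic index; counts are raw and not normalised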
Reading the numbers: mitotic cells: higher = more cells in mitosis, weaker G2 arrest
Rule for the call: 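a call needs confirmation in secondary tests, with other dsRNAs and a check of mitotic timing without damage, not just a high primary count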
Calls: active = confirmed in follow-up tests; inactive = not confirmed

no.	Gene	reagent no.	mitotic cells, replicate 1	mitotic cells, replicate 2	Call
1	ppk8 (pickpocket 8)	1	16		inactive
2	Grx5 (Glutaredoxin 5)	1	8		inactive
3	l(2)05287 (lethal (2) 05287)	1	9		inactive
4	l(2)05287 (lethal (2) 05287)	2	4		inactive
5	l(2)05287 (lethal (2) 05287)	3	12		inactive
6	DhpD (Dihydropterin deaminase)	1	8		inactive
7	CG5107	1	5		inactive
8	CG34398	1	12		inactive
9	CG34398	2	4		inactive
10	CG34398	3	5		inactive
11	CG34398	4	4		inactive
12	Vps8 (Vacuolar protein sorting 8)	1	10		inactive
13	ix (intersex)	1	6		inactive
14	ix (intersex)	2	11		inactive
15	CG3735	1	7		inactive
16	CG15745 (retired record)	1	9		inactive
17	Snr1 (Snf5-related 1)	1	13		inactive
18	hay (haywire)	1	8		inactive
19	Arf4 (ADP ribosylation factor 4)	1	26		inactive
20	Arf4 (ADP ribosylation factor 4)	2	11		inactive
21	FoxP (Forkhead box P)	1	4		inactive
22	FoxP (Forkhead box P)	2	8		inactive
23	FoxP (Forkhead box P)	3	6		inactive
24	CG7031	1	12		inactive
25	CG7031	2	18		inactive
26	CG31270 (retired record)	1	6		inactive
27	CG31270 (retired record)	2	7		inactive
28	CG8708	1	8		inactive
29	CG8708	2	1		inactive
30	CG13028	1	3		inactive
31	CG13310	1	3		inactive
32	CG13310	2	2		inactive
33	cid (centromere identifier)	1	6		inactive
34	cid (centromere identifier)	2	5		inactive
35	CG33160	1	6		inactive
36	CG33160	2	7		inactive
37	CG7251	1	9		inactive
38	CG7251	2	8		inactive
39	mthl13 (methuselah-like 13)	1	12		inactive
40	CG7220	1	5		inactive
41	CG7220	2	9		inactive
42	CG7220	3	8		inactive
43	Lk6 (Lk6 kinase)	1	2		inactive
44	Lk6 (Lk6 kinase)	2	6		inactive
45	Lk6 (Lk6 kinase)	3	6		inactive
46	CG15263	1	8		inactive
47	CG15263	2	8		inactive
48	osy (oskyddad)	1	13		inactive
49	osy (oskyddad)	2	7		inactive
50	osy (oskyddad)	3	11		inactive
51	CG14341	1	2		inactive
52	Polr1A (RNA polymerase I subunit A)	1	9		inactive
53	CG1116	1	5		inactive
54	Meltrin	1	2		inactive
55	Meltrin	2	8		inactive
56	Dim1	1	6		inactive
57	CG31883	1	1		inactive
58	Dus3 (Dihydrouridine synthase 3)	1	6		inactive
59	Dus3 (Dihydrouridine synthase 3)	2	1		inactive
60	dnd (dead end)	1	7		inactive
61	CG14253	1	6		inactive
62	CG1136	1	4		inactive
63	Orct (Organic cation transporter)	1	6		inactive
64	Orct (Organic cation transporter)	2	2		inactive
65	CG7164	1	7		inactive
66	CG7164	2	2		inactive
67	CG10657	1	2	20	inactive
68	CG10657	2	8		inactive
69	obst-G (obstructor-G)	1	3		inactive
70	JTBR	1	4		inactive
71	Nsun2 (NOP2-Sun domain family, member 2)	1	17		inactive
72	Nsun2 (NOP2-Sun domain family, member 2)	2	7		inactive
73	CG43861 + CG12508 (retired record)	1	4		inactive
74	CG6295	1	10		inactive
75	CG6295	2	7		inactive
76	bsk (basket)	1	6		inactive
77	Cpr11B (Cuticular protein 11B)	1	8		inactive
78	CG8888	1	8		inactive
79	CG8888	2	2		inactive
80	G6P (Glucose-6-Phosphatase)	1	6		inactive
81	Sox15 (Sox box protein 15)	1	17		inactive
82	Sox15 (Sox box protein 15)	2	4		inactive
83	clos (closca)	1	16		inactive
84	clos (closca)	2	5		inactive
85	clos (closca)	3	5		inactive
86	clos (closca)	4	6		inactive
87	clos (closca)	5	13		inactive
88	Rbbp5 + CG6434 (retired record)	1	3		inactive
89	CG15803	1	7		inactive
90	MetRS (Methionyl-tRNA synthetase)	1	9		inactive
91	Start1	1	2		inactive
92	Start1	2	9		inactive
93	CG43996	1	7		inactive
94	CG43996	2	8		inactive
95	CG14015	1	5		inactive
96	CG14015	2	9		inactive
97	CG5174	1	6		inactive
98	CG5174	2	7		inactive
99	Meics (Meiotic central spindle)	1	2		inactive
100	Meics (Meiotic central spindle)	2	9		inactive
101	CG31643	1	2		inactive
102	CG7252	1	3		inactive
103	CG7252	2	4		inactive
104	CG32189	1	10		inactive
105	CG32189	2	9		inactive
106	CG34155	1	4		inactive
107	sff (sugar-free frosting)	1	2		inactive
108	PGRP-LB (Peptidoglycan recognition protein LB)	1	4		inactive
109	CG34133	1	8		inactive
110	CG34133	2	7		inactive
111	CG34133	3	3		inactive
112	CG34133	4	5		inactive
